1 molecule from article PMC8632972 can be followed below.

This assay concerns the target T1, nYFP-tagged TMED9 (not stated (cDNA from INS1 cells)) (UniProt Q5I0E7).
T1 sequence: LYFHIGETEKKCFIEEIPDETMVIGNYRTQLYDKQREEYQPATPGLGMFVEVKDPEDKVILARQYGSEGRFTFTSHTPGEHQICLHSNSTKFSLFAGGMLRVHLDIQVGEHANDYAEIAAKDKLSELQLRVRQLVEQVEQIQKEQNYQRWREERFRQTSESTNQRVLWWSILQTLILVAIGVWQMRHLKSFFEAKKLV
The experiment in a line: split reporter; HEK-293T cells transfected with 200 ng nYFP- and 200 ng cYFP-tagged constructs, 48 h, then 30 °C for 6 h; fluorescence by flow cytometry or confocal imaging of live cells. For orientation: Flow cytometry measures light scatter and fluorescence of single cells or particles in a stream.

No constants are given. Whether binding was seen depends on the method and setting. In cells and extracts the contact can be indirect. Sequences can lack the tags named with a protein.

B1: proinsulin tagged with C-terminal segment of YFP (cYFP) (protein, UniProt P01322 25-110)
chain: FVKQHLCGPHLVEALYLVCGERGFFYTPKSRREVEDPQVPQLELGGGPEAGDLQTLALEVARQKRGIVDQCCTSICSLYQLENYCN
With B1, the binding entry was “no binding”.
